## Library screen at single concentrations

By UniProt entry, the sequences of proteins in these tests, tags left out. Residues count along the entry.
UniProt Q8IDJ8, 1-583: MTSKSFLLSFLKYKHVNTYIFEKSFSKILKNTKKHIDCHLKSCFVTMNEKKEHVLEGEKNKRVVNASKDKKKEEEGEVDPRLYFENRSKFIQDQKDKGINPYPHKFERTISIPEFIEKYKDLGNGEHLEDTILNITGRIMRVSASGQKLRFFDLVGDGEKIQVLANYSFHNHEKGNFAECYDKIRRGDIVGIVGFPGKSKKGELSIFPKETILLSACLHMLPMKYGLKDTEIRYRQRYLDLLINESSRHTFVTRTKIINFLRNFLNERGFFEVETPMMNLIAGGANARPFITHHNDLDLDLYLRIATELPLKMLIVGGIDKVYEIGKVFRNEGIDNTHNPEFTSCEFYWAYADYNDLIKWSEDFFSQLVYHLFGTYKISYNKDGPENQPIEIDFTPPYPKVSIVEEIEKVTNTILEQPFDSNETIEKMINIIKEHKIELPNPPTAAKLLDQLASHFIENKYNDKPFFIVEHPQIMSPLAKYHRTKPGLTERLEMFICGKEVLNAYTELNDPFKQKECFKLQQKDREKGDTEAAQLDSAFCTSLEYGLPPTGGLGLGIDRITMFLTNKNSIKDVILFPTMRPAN
UniProt A4I591, 1-473: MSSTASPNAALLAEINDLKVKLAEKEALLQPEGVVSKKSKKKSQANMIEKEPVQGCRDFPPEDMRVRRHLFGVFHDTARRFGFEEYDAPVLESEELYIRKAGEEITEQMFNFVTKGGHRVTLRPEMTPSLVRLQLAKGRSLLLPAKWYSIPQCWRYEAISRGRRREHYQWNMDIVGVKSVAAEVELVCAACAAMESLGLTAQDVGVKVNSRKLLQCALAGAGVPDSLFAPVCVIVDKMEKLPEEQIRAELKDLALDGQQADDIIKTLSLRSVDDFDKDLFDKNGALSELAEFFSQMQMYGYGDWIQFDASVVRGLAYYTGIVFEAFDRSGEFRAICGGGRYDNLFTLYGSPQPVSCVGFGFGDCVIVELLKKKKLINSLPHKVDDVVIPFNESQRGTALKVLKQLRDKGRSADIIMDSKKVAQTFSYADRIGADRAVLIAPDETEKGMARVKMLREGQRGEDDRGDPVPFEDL

From ChEMBL document CHEMBL3988442, “University of Dundee, Small-Polar-MMV Screening Library” (2021).

Leishmania in macrophages: 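Cell assay of Leishmania donovani living inside macrophages; the read-out is not stated. Compounds at 30 µM. Higher reads as stronger inhibition (inferred: compounds with an IC50 in retests scored well above the rest). About 69,000 compounds were tested under these conditions; 1.5% (about 1,000) showed 50% or more at least once.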
PfKRS1: 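Enzyme assay of the cytosolic lysyl-tRNA synthetase in 384-well plates, read by luminescence. Target: Lysine-tRNA ligase, Plasmodium falciparum 3D7 (UniProt Q8IDJ8). Tested at 30 µM. Higher reads as stronger inhibition, judged from the few compounds that gave an IC50. About 69,000 compounds were tested under these conditions; 0.071% (about 49) showed 50% or more at least once.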
LiHisRS: 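Histidine-tRNA ligase, Leishmania infantum (UniProt A4I591). Enzyme assay of histidyl-tRNA synthetase; the read-out is not stated. Concentration: 30 µM. Higher reads as stronger inhibition (inferred: compounds with an IC50 in retests scored well above the rest). The assay is labelled LdHisRS but filed under L. infantum. Size under these conditions: about 69,000 compounds, about 410 of them at 50% or above in at least one test.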

Each number is a percent effect as filed. The controls that fix the scale are not given in the record; negative values are as filed. Compounds were drawn at random from those tested, without regard to their results. Two or more numbers in one place are separate tests of the same structure; such repeats can differ widely.

* CC(c1nc(C(C)(C)C)no1)N1CCN(C(=O)CN2CCOCC2)CC1 (stereo not given) : Leishmania in macrophages: 24.72%; PfKRS1: 4.989%; LiHisRS: 13.48%
* CN1Cc2nnc(C3CCOCC3)n2C(Cc2c[nH]cn2)C1 (stereo not given) : Leishmania in macrophages: -110.5%; PfKRS1: 3.709%; LiHisRS: 13.7%
* CC(=O)Nc1ccc(C(=O)NCCCn2cccc2)cc1 : Leishmania in macrophages: 3.131% and -5.62%; PfKRS1: 3.1%; LiHisRS: 20.51%
* Cc1noc([C@H]2CC[C@@H]3[C@@H](CCN3S(=O)(=O)C3CC3)O2)n1 : PfKRS1: -6.332%; LiHisRS: -7.692%
* COc1ccc(CNC(=O)c2nn(C)c3c2CS(=O)(=O)CC3)cc1 : Leishmania in macrophages: -37.59%; PfKRS1: 0.8685%; LiHisRS: 13.79%
* CC(=O)N1CCC1c1nc(-c2ccc(C)s2)no1 (stereo not given) : Leishmania in macrophages: -13.41%; PfKRS1: -0.3701%; LiHisRS: 4.196%
* [H][C@@]12CCN(Cc3cc(C)on3)C[C@@]1([H])O[C@H](c1nc(C3CC3)cs1)C2 : Leishmania in macrophages: 36.21%
* CCSc1ncc(CN2CCN(c3nc(C)cnc3C)CC2)cn1 : Leishmania in macrophages: -17.43%; PfKRS1: 2.032%; LiHisRS: 11.11%
* Cc1nc(CN(C)S(=O)(=O)c2ccccc2Br)no1 : Leishmania in macrophages: 9.929%; PfKRS1: 1.97%; LiHisRS: 0%
* Cn1cc(Cl)cc1C(=O)N1CCN(Cc2cccs2)CC1 : Leishmania in macrophages: 10.36%; PfKRS1: 0.427%; LiHisRS: 14.68%
* CN1CCC2(CC1)CC(NC(=O)c1csnn1)c1ccccc1O2 (stereo not given) : PfKRS1: -1.652%; LiHisRS: 2%
* O=C(O)C(F)(F)F.O=C(O)C(F)(F)F.[H][C@@]12COC[C@]1([H])[C@H](OCc1ccccn1)CN2Cc1ccc(F)cc1 : Leishmania in macrophages: 38.45%
* N#Cc1cccc(N2CCC3(CCC(=O)N(CC4CCCO4)C3)CC2)n1 (stereo not given) : Leishmania in macrophages: -24.76%; PfKRS1: 3.513%; LiHisRS: 3.279%
* [H][C@@]12COC[C@H](c3nc(C)no3)[C@]1([H])CN(C(=O)Cc1ccccc1F)C2 : Leishmania in macrophages: 15.06%
* CC(C)c1ocnc1C(=O)NC1(c2cccc(F)c2)CCOCC1 : Leishmania in macrophages: -10.02%; PfKRS1: 3.507%; LiHisRS: 13.98%
* COc1ccccc1CCC(=O)N1C[C@H](c2ccccc2)[C@@H](N)C1 : Leishmania in macrophages: 10.44%; PfKRS1: 5.464%; LiHisRS: 8%
* Cc1ccc(-c2ncc(CN3CCOC(c4ccco4)C3)s2)o1 (stereo not given) : Leishmania in macrophages: -6.468%; PfKRS1: 0.3888%; LiHisRS: 2.128%
* CC1CCN(S(=O)(=O)NCCCn2cncn2)CC1 : Leishmania in macrophages: -0.4751%; PfKRS1: 5.444%; LiHisRS: 16.22%
* O=C(Cc1cccc(F)c1)N1CCc2ncnc(NC3CC3)c2CC1 : PfKRS1: 4.338%; LiHisRS: 19.09%
* Nc1nc(C2CCN(C(=O)c3cncs3)CC2)cs1 : Leishmania in macrophages: 1.667%; PfKRS1: 7.234%; LiHisRS: 19.44%
* CC(C)c1ccn(C2(C(=O)O)CCN(c3ccncc3F)CC2)n1 : Leishmania in macrophages: 30.13%; PfKRS1: 1.074%; LiHisRS: 1.571%
* CC(C)n1cnc2c(N3CCCC3)nc(C3CCNCC3)cc21.Cl.Cl : Leishmania in macrophages: -23.06%
* [H][C@@]12CC(=O)N(CC)[C@@]1([H])CCN2S(=O)(=O)c1cccc(C)c1 : Leishmania in macrophages: -1.496%
* CN(C)C(=O)Cn1cc(C#N)c(=O)c2cc(Br)ccc21 : Leishmania in macrophages: 7.335%; PfKRS1: 5.463%; LiHisRS: 6.452%
* O=C(C1CCCOC1)N(CC(F)F)c1cccc(Cl)c1 (stereo not given) : Leishmania in macrophages: -2.798%; PfKRS1: 0.9478%; LiHisRS: 18.33%
* CC(NC(=O)N1CCC(CO)CC1)c1csc2ccccc12 (stereo not given) : Leishmania in macrophages: -12.62%; PfKRS1: 4.381%; LiHisRS: 23.53%
* COc1cc(CNC(=O)N2CCCC2c2cc(C)no2)ccn1 (stereo not given) : Leishmania in macrophages: 18.2%; PfKRS1: 0.8574%; LiHisRS: 16.13%
* Cc1cccc(CN2CCc3ncnc(C)c3CC2)n1.O=C(O)C(F)(F)F : Leishmania in macrophages: 1.385%
* CN(CC(=O)Nc1cccnc1)CC1CCCN1c1cccnn1 (stereo not given) : Leishmania in macrophages: 3.61%; PfKRS1: 1.986%; LiHisRS: 15.18%

2 of the entries, repeated:

- CC(C)c1ccn(C2(C(=O)O)CCN(c3ccncc3F)CC2)n1 : Leishmania in macrophages: 30.13%; PfKRS1: 1.074%; LiHisRS: 1.571%
- Nc1nc(C2CCN(C(=O)c3cncs3)CC2)cs1 : Leishmania in macrophages: 1.667%; PfKRS1: 7.234%; LiHisRS: 19.44%